PubChem BioAssay AID1259254 | NCATS, 2017

- Test: 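Genome-wide screen for genes that prevent DNA re-replication in cancer cells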 (primary screen)
- Cell system: human HCT116 colorectal cancer cells
- Knock-down reagent: single siRNA against human genes
- Time to read-out: 3 days
- Measured: 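Imaged Hoechst DNA stain sorts each cell into a cycle phase by DNA amount; per plate, G2 fraction set to 0% for non-targeting and 100% for GMNN siRNA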
- Reading the numbers: G2 robust z-score and G2 cells, % of GMNN control: higher = more G2 cells, more excess DNA replication
- Call rule: 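An siRNA counts as active if its G2 robust z-score lies at least 5 MADs above the screen median; here such calls match roughly 38% of GMNN control or more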
This is one part, drawn at random, of about 59,000 deposited reagents. In the full data, about 1,550 (2.6%) got an active call. 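G2 share is only a proxy for re-replication; each gene was hit by three separate siRNAs, and active genes were retested.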 Entries without a mark were called inactive. Reagents against one gene are numbered here. Further read-outs or replicates are left out here. No sequences are given here. Not given: the amount of reagent.

target gene	siRNA no.	G2 robust z-score	G2 cells, % of GMNN control
PCDHGA4 (protocadherin gamma subfamily A, 4)	1	1.07	10.5
PCDHGA4 (protocadherin gamma subfamily A, 4)	2	0.176	4.21
PCDHGA4 (protocadherin gamma subfamily A, 4)	3	-0.116	2.15
GRIN3A (glutamate ionotropic receptor NMDA type subunit 3A)	1	-0.614	-1.35
GRIN3A (glutamate ionotropic receptor NMDA type subunit 3A)	2	1.23	11.6
GRIN3A (glutamate ionotropic receptor NMDA type subunit 3A)	3	0.116	3.79
ZNF37A (zinc finger protein 37A)	1	0.11	3.74
ZNF37A (zinc finger protein 37A)	2	0.251	4.73
ZNF37A (zinc finger protein 37A)	3	-0.976	-3.9
POLE3 (DNA polymerase epsilon 3, accessory subunit)	1	-0.701	-1.96
POLE3 (DNA polymerase epsilon 3, accessory subunit)	2	0.756	8.29
POLE3 (DNA polymerase epsilon 3, accessory subunit)	3	-0.42	0.0115
CXCR5 (C-X-C motif chemokine receptor 5)	1	-0.503	-0.573
CXCR5 (C-X-C motif chemokine receptor 5)	2	-0.318	0.732
CXCR5 (C-X-C motif chemokine receptor 5)	3	-0.167	1.79
NUCB1 (nucleobindin 1)	1	1.92	16.5
NUCB1 (nucleobindin 1)	2	2.6	21.3
NUCB1 (nucleobindin 1)	3	-0.516	-0.661
DCAF4L1 (DDB1 and CUL4 associated factor 4 like 1)	1	3.39	26.8
DCAF4L1 (DDB1 and CUL4 associated factor 4 like 1)	2	1.15	11
DCAF4L1 (DDB1 and CUL4 associated factor 4 like 1)	3	0.815	8.7
LXN (latexin)	1	-0.586	-1.16
LXN (latexin)	2	1.42	12.9
LXN (latexin)	3	0.947	9.63
ABHD17C (abhydrolase domain containing 17C, depalmitoylase)	1	-0.00634	2.92
ABHD17C (abhydrolase domain containing 17C, depalmitoylase)	2	7.21 (active)	53.7
ABHD17C (abhydrolase domain containing 17C, depalmitoylase)	3	-0.325	0.678
MRPS34 (mitochondrial ribosomal protein S34)	1	1.41	12.9
MRPS34 (mitochondrial ribosomal protein S34)	2	-0.883	-3.25
MRPS34 (mitochondrial ribosomal protein S34)	3	-0.558	-0.96
DSN1 (DSN1 component of MIS12 kinetochore complex)	1	-0.481	-0.42
DSN1 (DSN1 component of MIS12 kinetochore complex)	2	-0.266	1.1
DSN1 (DSN1 component of MIS12 kinetochore complex)	3	-0.407	0.106
TGIF1 (TGFB induced factor homeobox 1)	1	1.6	14.2
TGIF1 (TGFB induced factor homeobox 1)	2	1.34	12.4
TGIF1 (TGFB induced factor homeobox 1)	3	-0.183	1.68
ANKRD62 (ankyrin repeat domain 62)	1	1.36	12.6
ANKRD62 (ankyrin repeat domain 62)	2	0.0387	3.24
ANKRD62 (ankyrin repeat domain 62)	3	0.754	8.27

9 entries from above, showing only “G2 robust z-score”.
DCAF4L1 (DDB1 and CUL4 associated factor 4 like 1) #2	1.15
DCAF4L1 (DDB1 and CUL4 associated factor 4 like 1) #3	0.815
LXN (latexin) #1	-0.586
LXN (latexin) #2	1.42
LXN (latexin) #3	0.947
ABHD17C (abhydrolase domain containing 17C, depalmitoylase) #1	-0.00634
ABHD17C (abhydrolase domain containing 17C, depalmitoylase) #2	7.21 (active)
ABHD17C (abhydrolase domain containing 17C, depalmitoylase) #3	-0.325
MRPS34 (mitochondrial ribosomal protein S34) #1	1.41

The results go on:
target gene	siRNA no.	G2 robust z-score	G2 cells, % of GMNN control
ANK3 (ankyrin 3)	1	-1.15	-5.11
ANK3 (ankyrin 3)	2	-0.917	-3.48
ANK3 (ankyrin 3)	3	0.0532	3.34
DMTN (dematin actin binding protein)	1	1.21	11.5
DMTN (dematin actin binding protein)	2	0.97	9.79
DMTN (dematin actin binding protein)	3	2.03	17.3
MESD (mesoderm development LRP chaperone)	1	5.52 (active)	41.8
MESD (mesoderm development LRP chaperone)	2	0.416	5.89
MESD (mesoderm development LRP chaperone)	3	3.03	24.3
VDAC1 (voltage dependent anion channel 1)	1	1.85	16
VDAC1 (voltage dependent anion channel 1)	2	0.312	5.16
VDAC1 (voltage dependent anion channel 1)	3	-0.539	-0.822
MEPCE (methylphosphate capping enzyme)	1	-0.234	1.32
MEPCE (methylphosphate capping enzyme)	2	-0.103	2.25
MEPCE (methylphosphate capping enzyme)	3	1.25	11.8
IMPACT (impact RWD domain protein)	1	3.39	26.8
IMPACT (impact RWD domain protein)	2	4.29	33.1
IMPACT (impact RWD domain protein)	3	1.07	10.5
MFAP3 (microfibril associated protein 3)	1	1.18	11.2
MFAP3 (microfibril associated protein 3)	2	-1.22	-5.64
MFAP3 (microfibril associated protein 3)	3	0.231	4.6
POU3F2 (POU class 3 homeobox 2)	1	0.598	7.18
POU3F2 (POU class 3 homeobox 2)	2	0.596	7.16
POU3F2 (POU class 3 homeobox 2)	3	0.608	7.24
HAS3 (hyaluronan synthase 3)	1	1.83	15.9
HAS3 (hyaluronan synthase 3)	2	-0.4	0.155
HAS3 (hyaluronan synthase 3)	3	0.187	4.28
CDC34 (cell division cycle 34, ubiquitin conjugating enzyme)	1	0.752	8.26
CDC34 (cell division cycle 34, ubiquitin conjugating enzyme)	2	-0.451	-0.209
CDC34 (cell division cycle 34, ubiquitin conjugating enzyme)	3	0.497	6.46
